Experiment [1] concerns the target T1, IL-10Rβ, full-length subunit of the interleukin 10 receptor (UniProt Q61190).
T1 sequence: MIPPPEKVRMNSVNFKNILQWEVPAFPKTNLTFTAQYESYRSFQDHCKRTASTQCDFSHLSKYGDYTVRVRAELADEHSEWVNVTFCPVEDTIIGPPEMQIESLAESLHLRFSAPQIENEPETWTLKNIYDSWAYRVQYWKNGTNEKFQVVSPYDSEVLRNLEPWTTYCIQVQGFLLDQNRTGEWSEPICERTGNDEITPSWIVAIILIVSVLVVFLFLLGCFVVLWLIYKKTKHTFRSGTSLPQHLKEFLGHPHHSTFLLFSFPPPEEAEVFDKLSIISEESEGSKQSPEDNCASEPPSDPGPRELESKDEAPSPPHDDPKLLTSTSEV
Put plainly: FRET or BRET; BRET saturation assay in living HEK293 cells; full-length Rluc donor (plasmid constant, 0.75 ng/mL) with increasing full-length eYFP acceptor plasmid; HBSS, coelenterazine H 5 µM, 37 °C. (BRET reads energy transfer from a luciferase to a nearby fluorophore.)

Experiment [2] concerns the target T2, IL-10Rα, full-length subunit of the interleukin 10 receptor (UniProt Q61727).
T2 sequence: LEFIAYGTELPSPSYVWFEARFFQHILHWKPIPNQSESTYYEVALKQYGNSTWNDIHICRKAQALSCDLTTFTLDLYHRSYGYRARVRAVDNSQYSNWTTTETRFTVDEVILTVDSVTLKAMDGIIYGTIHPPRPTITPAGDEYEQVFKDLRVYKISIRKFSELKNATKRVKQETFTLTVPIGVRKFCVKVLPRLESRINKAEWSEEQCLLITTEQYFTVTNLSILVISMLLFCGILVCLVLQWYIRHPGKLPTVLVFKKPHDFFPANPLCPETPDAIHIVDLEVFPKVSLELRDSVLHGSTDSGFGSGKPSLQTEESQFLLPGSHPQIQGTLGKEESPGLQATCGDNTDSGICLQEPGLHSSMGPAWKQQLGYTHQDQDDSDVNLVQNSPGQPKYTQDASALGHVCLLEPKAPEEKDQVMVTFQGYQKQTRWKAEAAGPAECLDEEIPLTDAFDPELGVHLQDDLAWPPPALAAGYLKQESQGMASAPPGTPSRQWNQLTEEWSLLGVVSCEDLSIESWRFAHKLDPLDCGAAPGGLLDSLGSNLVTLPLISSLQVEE
The description is as above.

No constants are given. Whether binding was seen depends on the method and setting. Binding seen in cells or lysates may run through a third protein.

In the case of PDGFRα (receptor), the binding result in experiment [1] and in experiment [2] was “no binding” throughout.
Take GABAB (receptor): the binding entry in experiment [1] and in experiment [2] was “no binding” throughout.

The record behind these values is PMC10216903, “Implication of the Transmembrane Domain in the Interleukin 10 Receptor Platform Oligomerisation” (Cells, 2023).
